Literature values in US9255071B2, “Compounds having antibacterial activity, process for their preparation and pharmaceutical compositions comprising them” (Consejo Nacional de Investigaciones Cientificas y Técnicas …, priority 2012, dated 2016).
At least one compound was matched to its structure with a doubt left. Some results were stated once for a whole list of compounds, not compound by compound.

Key:
Proteus mirabilis = tested on: Proteus mirabilis; design: unit not given beside the values; settings: Proteus mirabilis ATCC 10005; reference antibiotic according to WHONET; cited from earlier work
Escherichia Coli = tested on: Escherichia Coli; design: unit not given beside the values; settings: Escherichia Coli ATCC 8739; reference antibiotic according to WHONET; cited from earlier work
Enterobacter cloacae = tested on: Enterobacter cloacae; design: unit not given beside the values; settings: Enterobacter cloacae ATCC 35587; reference antibiotic according to WHONET; cited from earlier work
Pseudomona aeruginosa = tested on: Pseudomona aeruginosa; design: unit not given beside the values; settings: Pseudomona aeruginosa ATCC 9027; reference antibiotic according to WHONET; cited from earlier work
Mycobacterium smegmatis = Mycobacterium smegmatis ATCC 607; reference antibiotic according to WHONET; cited from earlier work
Klebsiella pneumoniae = Klebsiella pneumoniae ATCC 10273; reference antibiotic according to WHONET; cited from earlier work
Streptococcus pyogenes = tested on: Streptococcus pyogenes; design: unit not given beside the values; settings: Streptococcus pyogenes ATCC 8133; reference antibiotic according to WHONET; cited from earlier work

SMILES | MIC (for WHO antibiotics) (Proteus mirabilis) | MIC (for WHO antibiotics) (Escherichia Coli) | MIC (for WHO antibiotics) (Enterobacter cloacae) | MIC (for WHO antibiotics) (Pseudomona aeruginosa) | MIC (for WHO antibiotics) (Mycobacterium smegmatis) | MIC (for WHO antibiotics) (Klebsiella pneumoniae) | MIC (for WHO antibiotics) (Streptococcus pyogenes)
C[C@@H](O)[C@H]1C(=O)N2C(C(=O)O)=C(SCCN=CN)C[C@H]12 [Imipenem] | ≦2.0 | ≦2.0 | ≦2.0 | 1.0-4.0 | ≦4.0 | ≦2.0 | 
CC1(C)S[C@@H]2[C@H](NC(=O)Cc3ccccc3)C(=O)N2[C@H]1C(=O)[O-].[K+] [Penicillin G (potassium salt), Penicillin G] |  |  |  |  |  |  | ≦0.125
